Data from the supplement of paper PMC10849652.
The other results are listed elsewhere or left out.

By UniProt entry, the sequences of proteins in these tests, tags left out. Where a name states a change or a piece, a line headed by the entry shows the natural chain unless it says otherwise.
UniProt Q7Z478: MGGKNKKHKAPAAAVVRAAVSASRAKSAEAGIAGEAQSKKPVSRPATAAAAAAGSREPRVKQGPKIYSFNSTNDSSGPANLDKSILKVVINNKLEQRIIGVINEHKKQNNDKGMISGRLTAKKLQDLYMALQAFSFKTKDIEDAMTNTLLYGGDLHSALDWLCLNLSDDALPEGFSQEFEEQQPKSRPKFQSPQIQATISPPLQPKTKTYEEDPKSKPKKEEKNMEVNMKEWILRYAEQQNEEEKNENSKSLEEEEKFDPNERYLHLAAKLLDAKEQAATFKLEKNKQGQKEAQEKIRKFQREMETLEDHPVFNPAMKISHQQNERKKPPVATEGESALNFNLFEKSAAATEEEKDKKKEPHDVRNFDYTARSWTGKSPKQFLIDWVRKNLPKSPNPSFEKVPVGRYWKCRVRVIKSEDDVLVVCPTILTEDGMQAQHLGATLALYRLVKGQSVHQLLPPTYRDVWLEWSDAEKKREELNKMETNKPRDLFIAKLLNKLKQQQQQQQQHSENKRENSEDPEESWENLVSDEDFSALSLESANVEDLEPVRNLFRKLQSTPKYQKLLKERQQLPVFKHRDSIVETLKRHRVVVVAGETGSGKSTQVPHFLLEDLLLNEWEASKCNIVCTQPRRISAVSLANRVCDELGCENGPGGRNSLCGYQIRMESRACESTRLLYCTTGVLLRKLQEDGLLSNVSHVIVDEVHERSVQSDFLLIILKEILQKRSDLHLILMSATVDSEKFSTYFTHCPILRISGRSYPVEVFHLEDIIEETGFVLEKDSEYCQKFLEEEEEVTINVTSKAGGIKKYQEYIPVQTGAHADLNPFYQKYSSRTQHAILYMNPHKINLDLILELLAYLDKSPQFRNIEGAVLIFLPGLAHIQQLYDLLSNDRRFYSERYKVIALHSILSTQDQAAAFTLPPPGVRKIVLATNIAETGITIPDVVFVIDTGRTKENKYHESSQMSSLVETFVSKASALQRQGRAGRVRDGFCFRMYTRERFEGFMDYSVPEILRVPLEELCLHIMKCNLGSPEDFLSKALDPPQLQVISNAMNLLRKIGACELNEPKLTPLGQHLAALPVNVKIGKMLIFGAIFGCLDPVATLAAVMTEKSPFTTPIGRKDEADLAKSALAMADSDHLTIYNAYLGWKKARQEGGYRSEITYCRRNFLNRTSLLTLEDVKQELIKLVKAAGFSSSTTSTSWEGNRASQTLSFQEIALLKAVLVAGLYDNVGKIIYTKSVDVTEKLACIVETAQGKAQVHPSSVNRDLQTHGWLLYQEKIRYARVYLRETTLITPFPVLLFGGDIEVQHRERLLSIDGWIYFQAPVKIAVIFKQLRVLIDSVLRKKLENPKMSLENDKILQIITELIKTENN
UniProt Q14689: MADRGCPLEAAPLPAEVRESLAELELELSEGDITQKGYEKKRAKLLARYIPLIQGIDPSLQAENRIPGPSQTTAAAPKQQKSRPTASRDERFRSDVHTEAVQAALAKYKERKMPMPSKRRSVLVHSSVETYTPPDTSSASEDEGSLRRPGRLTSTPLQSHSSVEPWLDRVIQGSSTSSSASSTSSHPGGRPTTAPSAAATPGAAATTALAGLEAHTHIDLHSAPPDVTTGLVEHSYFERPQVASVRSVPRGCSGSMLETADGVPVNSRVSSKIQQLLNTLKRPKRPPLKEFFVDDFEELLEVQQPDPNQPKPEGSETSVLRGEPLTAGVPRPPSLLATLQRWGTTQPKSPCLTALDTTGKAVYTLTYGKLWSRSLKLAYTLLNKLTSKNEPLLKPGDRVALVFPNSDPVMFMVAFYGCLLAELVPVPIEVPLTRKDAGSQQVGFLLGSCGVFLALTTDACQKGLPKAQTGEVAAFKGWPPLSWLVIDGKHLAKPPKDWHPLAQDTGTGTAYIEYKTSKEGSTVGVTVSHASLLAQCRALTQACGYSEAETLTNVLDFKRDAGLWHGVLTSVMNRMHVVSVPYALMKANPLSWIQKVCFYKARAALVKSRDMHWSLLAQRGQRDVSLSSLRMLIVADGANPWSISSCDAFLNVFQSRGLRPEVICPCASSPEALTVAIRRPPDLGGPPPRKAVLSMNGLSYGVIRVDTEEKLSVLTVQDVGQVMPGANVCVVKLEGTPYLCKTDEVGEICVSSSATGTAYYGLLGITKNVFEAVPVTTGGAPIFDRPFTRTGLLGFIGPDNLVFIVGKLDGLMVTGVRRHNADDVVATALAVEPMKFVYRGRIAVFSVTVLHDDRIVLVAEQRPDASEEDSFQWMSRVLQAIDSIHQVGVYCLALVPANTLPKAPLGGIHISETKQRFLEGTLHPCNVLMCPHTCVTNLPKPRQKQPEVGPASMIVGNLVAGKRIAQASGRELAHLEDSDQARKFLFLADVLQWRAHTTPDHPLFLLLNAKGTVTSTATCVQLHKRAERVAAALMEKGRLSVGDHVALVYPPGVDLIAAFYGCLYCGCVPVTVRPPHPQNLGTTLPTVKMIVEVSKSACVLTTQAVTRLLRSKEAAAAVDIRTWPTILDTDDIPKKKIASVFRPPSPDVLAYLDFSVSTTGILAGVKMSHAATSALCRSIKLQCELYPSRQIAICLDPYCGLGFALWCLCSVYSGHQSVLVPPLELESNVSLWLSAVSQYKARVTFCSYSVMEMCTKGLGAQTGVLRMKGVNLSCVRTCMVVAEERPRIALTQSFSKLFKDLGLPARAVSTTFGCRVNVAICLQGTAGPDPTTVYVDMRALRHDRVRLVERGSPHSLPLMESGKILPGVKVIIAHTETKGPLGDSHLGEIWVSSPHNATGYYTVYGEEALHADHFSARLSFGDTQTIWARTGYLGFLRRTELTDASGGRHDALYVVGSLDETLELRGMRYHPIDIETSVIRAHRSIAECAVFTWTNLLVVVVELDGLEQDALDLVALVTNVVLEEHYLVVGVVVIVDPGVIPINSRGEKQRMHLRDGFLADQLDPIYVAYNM
UniProt P09622, whole entry, looked up: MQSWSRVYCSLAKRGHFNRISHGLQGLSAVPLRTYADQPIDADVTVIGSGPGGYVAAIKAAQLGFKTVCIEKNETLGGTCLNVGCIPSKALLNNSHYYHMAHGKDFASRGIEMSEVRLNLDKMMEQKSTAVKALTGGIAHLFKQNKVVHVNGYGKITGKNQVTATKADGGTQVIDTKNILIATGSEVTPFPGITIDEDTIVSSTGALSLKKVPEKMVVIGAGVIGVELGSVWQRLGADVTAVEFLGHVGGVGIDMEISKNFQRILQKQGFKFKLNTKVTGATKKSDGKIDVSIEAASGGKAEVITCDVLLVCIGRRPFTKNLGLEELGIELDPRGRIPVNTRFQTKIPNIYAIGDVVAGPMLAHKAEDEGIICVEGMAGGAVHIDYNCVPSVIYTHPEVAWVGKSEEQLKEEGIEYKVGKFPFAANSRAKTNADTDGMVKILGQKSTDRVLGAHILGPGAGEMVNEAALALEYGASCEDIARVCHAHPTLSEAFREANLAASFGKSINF
UniProt Q9NR28: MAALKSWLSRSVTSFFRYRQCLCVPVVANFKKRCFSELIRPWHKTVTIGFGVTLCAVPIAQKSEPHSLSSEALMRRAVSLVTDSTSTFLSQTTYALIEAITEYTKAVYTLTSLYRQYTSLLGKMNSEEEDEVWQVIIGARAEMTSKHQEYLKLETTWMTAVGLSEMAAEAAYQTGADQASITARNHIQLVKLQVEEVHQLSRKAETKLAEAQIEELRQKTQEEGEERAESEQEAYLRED
UniProt O75190: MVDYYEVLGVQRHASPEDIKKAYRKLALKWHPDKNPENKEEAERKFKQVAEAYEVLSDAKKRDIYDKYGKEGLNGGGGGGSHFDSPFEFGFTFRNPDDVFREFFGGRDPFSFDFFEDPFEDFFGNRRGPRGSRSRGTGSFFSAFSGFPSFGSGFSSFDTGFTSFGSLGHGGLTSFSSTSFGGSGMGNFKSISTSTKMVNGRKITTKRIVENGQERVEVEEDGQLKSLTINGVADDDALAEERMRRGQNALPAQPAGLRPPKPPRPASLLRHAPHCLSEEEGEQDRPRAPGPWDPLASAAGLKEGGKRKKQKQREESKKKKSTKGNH
UniProt Q68CQ4: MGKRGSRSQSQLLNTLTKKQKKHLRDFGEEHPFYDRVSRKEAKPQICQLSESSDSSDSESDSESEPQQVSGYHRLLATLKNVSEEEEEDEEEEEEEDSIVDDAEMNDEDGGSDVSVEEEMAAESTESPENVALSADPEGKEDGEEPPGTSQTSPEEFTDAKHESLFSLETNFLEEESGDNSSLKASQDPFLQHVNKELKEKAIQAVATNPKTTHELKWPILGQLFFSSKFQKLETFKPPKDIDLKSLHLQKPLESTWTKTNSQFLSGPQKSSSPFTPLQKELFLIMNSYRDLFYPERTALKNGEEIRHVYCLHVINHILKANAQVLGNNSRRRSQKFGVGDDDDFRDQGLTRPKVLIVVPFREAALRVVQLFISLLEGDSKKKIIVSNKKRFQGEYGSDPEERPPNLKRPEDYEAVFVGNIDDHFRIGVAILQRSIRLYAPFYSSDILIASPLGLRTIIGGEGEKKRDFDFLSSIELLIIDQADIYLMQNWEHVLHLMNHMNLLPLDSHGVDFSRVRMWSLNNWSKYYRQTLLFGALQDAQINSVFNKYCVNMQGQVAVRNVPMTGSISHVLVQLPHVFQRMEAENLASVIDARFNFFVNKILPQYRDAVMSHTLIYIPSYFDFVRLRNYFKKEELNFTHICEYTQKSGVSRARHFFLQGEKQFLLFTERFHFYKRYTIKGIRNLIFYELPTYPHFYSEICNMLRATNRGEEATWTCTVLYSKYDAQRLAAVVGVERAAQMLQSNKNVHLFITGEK
UniProt P26358: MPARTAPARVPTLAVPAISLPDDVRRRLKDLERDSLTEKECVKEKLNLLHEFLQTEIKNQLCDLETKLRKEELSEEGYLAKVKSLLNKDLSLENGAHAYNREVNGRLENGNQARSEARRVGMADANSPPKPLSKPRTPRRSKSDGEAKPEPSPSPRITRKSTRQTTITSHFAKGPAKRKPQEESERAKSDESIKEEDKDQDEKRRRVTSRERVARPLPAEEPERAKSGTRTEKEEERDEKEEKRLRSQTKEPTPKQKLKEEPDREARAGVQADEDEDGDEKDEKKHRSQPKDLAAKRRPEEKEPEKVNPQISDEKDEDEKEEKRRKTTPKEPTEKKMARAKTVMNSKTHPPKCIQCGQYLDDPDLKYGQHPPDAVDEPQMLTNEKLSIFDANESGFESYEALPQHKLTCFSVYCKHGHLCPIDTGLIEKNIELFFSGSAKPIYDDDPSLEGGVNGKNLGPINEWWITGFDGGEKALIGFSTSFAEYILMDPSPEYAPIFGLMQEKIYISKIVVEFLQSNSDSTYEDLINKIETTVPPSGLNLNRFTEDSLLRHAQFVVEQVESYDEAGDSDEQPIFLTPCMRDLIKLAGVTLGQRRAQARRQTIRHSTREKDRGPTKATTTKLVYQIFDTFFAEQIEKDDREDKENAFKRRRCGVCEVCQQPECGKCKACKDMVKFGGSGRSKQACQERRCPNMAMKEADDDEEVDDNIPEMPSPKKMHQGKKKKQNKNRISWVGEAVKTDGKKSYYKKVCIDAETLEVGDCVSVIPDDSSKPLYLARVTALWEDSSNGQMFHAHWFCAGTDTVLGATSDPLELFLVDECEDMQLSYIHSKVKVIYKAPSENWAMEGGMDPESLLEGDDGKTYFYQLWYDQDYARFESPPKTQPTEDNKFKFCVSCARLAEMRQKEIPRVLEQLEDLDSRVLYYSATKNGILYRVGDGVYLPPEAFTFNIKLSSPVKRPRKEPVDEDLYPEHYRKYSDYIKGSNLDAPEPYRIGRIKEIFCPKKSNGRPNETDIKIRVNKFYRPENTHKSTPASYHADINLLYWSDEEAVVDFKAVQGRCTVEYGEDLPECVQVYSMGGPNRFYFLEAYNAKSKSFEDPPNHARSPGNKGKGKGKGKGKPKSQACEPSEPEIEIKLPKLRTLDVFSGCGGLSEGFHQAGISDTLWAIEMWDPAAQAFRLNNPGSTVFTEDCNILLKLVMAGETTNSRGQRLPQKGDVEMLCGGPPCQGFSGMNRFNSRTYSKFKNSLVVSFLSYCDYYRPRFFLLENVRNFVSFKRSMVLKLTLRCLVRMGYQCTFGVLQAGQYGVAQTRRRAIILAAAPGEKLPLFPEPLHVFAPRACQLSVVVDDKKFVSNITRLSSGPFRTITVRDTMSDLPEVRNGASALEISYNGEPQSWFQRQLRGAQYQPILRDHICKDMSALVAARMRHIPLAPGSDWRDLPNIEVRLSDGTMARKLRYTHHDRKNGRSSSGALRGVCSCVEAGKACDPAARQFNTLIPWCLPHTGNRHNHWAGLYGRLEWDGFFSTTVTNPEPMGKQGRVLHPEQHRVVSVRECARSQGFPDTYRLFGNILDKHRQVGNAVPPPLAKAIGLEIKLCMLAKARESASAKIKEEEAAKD

Experiments:
Test in all cases: log2 fold change, soluble protein after heating vs DMSO (PISA); higher = thermal stabilisation; K562 lysate, 10 uM; active = over 0.2 and 3.5 SD of the protein, either way, in both replicates (recomputed)
ibrutinib = compound: C=CC(=O)N1CCC[C@@H](n2nc(-c3ccc(Oc4ccccc4)cc3)c3c(N)ncnc32)C1 [ibrutinib]
In short: (§1)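 Values give the log-two fold change in thermal stability against solvent controls, from duplicates. Crude K562 extract at 1 mg/mL protein, made by dounce homogenisation in PBS pH 7.4 with 1 mM MgCl2, was treated with 10 μM compound for 30 min. After 3 min heating across 48°C-58°C, aliquots were pooled, adjusted to 0.5% NP-40 at 4°C and centrifuged at 21,000xg for 90 min. The supernatant was measured by TMTpro 16plex LC-MS/MS with channel sums equalised.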

[1] = compound: CC(=O)c1cnc2ccc(-c3cc(Cl)c(O)c(Cl)c3)nc2c1N[C@H]1CC[C@H](CN(C)C)CC1
In short: as §1

ralimetinib = compound: CC(C)(C)Cn1c(N)nc2ccc(-c3[nH]c(C(C)(C)C)nc3-c3ccc(F)cc3)nc21 [ralimetinib]
In short: as §1

[2] = compound: CC(C)(O)CC(=O)NCCn1ccc2ncnc(Nc3ccc(Oc4cccc(C(F)(F)F)c4)c(Cl)c3)c21
In short: as §1

[3] = compound: CC(C)C1=C2N=C(C=C(N2N=C1)NCC3=CC=CC=C3)NCCCCCCN
In short: as §1

[4] = compound: CC1=C(C(CC(=O)N1)C2=CC=C(C=C2)C(F)(F)F)C(=O)NC3=C(C=C4C(=C3)C=NN4)F
In short: as §1

[5] = compound: CC1=C(C2=C(C=C1)C(=O)C3=CC=CC=C3N2CCCN)C
In short: as §1

[6] = compound: CC1=C(C=C(C=C1)NC(=O)C2=CC(=CC=C2)C(C)(C)C#N)NC3=CC4=C(C=C3)N=CN(C4=O)C
In short: as §1

[7] = compound: CC1=C(C=C(C=C1)NC(=O)C2=CC(=CC=C2)N(C)C)NC(=O)C3=CC=C(C=C3)O
In short: as §1

[8] = compound: CC1=CC=C(C=C1)SC2=C3C=C(SC3=CN=C2)C(=O)N
In short: as §1

Measured: log2 fold change

DIDO1 (UniProt Q9BTC0)
inactive: ibrutinib 0.107 | [1] 0.014 | ralimetinib 0.041 | [2] 0.013 | [3] -0.013 | [4] 0 | [5] -0.019 | [6] -0.015 | [7] 0.012 | [8] -0.015

DHPS (UniProt P49366)
inactive: ibrutinib 0.009 | [1] -0.018 | ralimetinib -0.013 | [2] -0.012 | [3] -0.005 | [4] -0.024 | [5] -0.027 | [6] 0.047 | [7] -0.022 | [8] -0.018

DHX29 (UniProt Q7Z478)
inactive: ibrutinib -0.015 | [1] -0.027 | ralimetinib 0.018 | [2] -0.043 | [3] 0.01 | [4] 0.014 | [5] 0.036 | [6] -0.027 | [7] -0.003 | [8] 0.001

DMD (UniProt P11532)
inactive: ibrutinib 0.038 | [1] 0.003 | ralimetinib 0.018 | [2] -0.022 | [3] 0.002 | [4] 0.013 | [5] 0.016 | [6] -0.004 | [7] -0.01 | [8] -0.006

DIP2A (UniProt Q14689)
inactive: ibrutinib 0.005 | [1] -0.006 | ralimetinib -0.003 | [2] -0.072 | [3] -0.06 | [4] 0.024 | [5] -0.06 | [6] -0.057 | [7] -0.005 | [8] 0.009

DHX35 (UniProt Q9H5Z1)
inactive: ibrutinib -0.018 | [1] -0.04 | ralimetinib 0.045 | [2] -0.059 | [3] -0.081 | [4] 0.06 | [5] -0.09 | [6] 0.146 | [7] 0.015 | [8] 0.092

DLD (UniProt P09622)
inactive: ibrutinib 0.003 | [1] 0.003 | ralimetinib -0.006 | [2] -0.016 | [3] -0.013 | [4] -0.03 | [5] -0.006 | [6] 0.049 | [7] -0.007 | [8] 0.004

DNAJA3 (UniProt Q96EY1)
inactive: ibrutinib 0.064 | [1] -0.048 | ralimetinib 0.02 | [2] -0.049 | [3] 0.016 | [4] 0.006 | [5] -0.014 | [6] -0.03 | [7] 0.014 | [8] -0.029

DNAAF5 (UniProt Q86Y56)
inactive: ibrutinib -0.043 | [1] 0.032 | ralimetinib 0.074 | [2] -0.049 | [3] -0.043 | [4] -0.002 | [5] -0.005 | [6] -0.035 | [7] 0.047 | [8] 0.061

Reprinted at random: two entries already listed
DNAAF5 (UniProt Q86Y56)
inactive: ibrutinib -0.043 | [1] 0.032 | ralimetinib 0.074 | [2] -0.049 | [3] -0.043 | [4] -0.002 | [5] -0.005 | [6] -0.035 | [7] 0.047 | [8] 0.061

DNAJA3 (UniProt Q96EY1)
inactive: ibrutinib 0.064 | [1] -0.048 | ralimetinib 0.02 | [2] -0.049 | [3] 0.016 | [4] 0.006 | [5] -0.014 | [6] -0.03 | [7] 0.014 | [8] -0.029

Continuation.

DOHH (UniProt Q9BU89)
inactive: ibrutinib -0.039 | [1] -0.02 | ralimetinib 0.065 | [2] -0.025 | [3] 0.008 | [4] -0.006 | [5] 0.016 | [6] 0.037 | [7] 0 | [8] 0.066

DIP2B (UniProt Q9P265)
inactive: ibrutinib 0.017 | [1] -0.002 | ralimetinib -0.003 | [2] -0.052 | [3] 0.001 | [4] 0.02 | [5] -0.012 | [6] 0.014 | [7] -0.01 | [8] 0.015

DGUOK (UniProt Q16854)
inactive: ibrutinib -0.05 | [1] -0.002 | ralimetinib -0.053 | [2] 0.023 | [3] -0.006 | [4] -0.024 | [5] 0.02 | [6] 0.003 | [7] -0.022 | [8] -0.028

DNAJA1 (UniProt P31689)
inactive: ibrutinib -0.01 | [1] 0.017 | ralimetinib 0.005 | [2] -0.039 | [3] 0.006 | [4] -0.021 | [5] 0.015 | [6] 0.023 | [7] 0.019 | [8] 0.008

DOCK8 (UniProt Q8NF50)
inactive: ibrutinib -0.033 | [1] -0.012 | ralimetinib 0.03 | [2] 0.047 | [3] 0.003 | [4] -0.005 | [5] 0.022 | [6] 0.004 | [7] 0.057 | [8] -0.011

DIABLO (UniProt Q9NR28)
inactive: ibrutinib 0.088 | [1] -0.036 | ralimetinib -0.001 | [2] -0.05 | [3] -0.029 | [4] -0.042 | [5] 0 | [6] 0.003 | [7] -0.011 | [8] 0.004

DLAT (UniProt P10515)
inactive: ibrutinib 0.006 | [1] -0.013 | ralimetinib 0.018 | [2] -0.027 | [3] 0.003 | [4] -0.044 | [5] 0.005 | [6] 0.099 | [7] -0.023 | [8] -0.011

DNM1 (UniProt Q05193)
inactive: ibrutinib 0.106 | [1] 0.035 | ralimetinib 0.021 | [2] -0.008 | [3] -0.039 | [4] 0.094 | [5] -0.039 | [6] -0.046 | [7] 0.144 | [8] 0.046

DNAJC2 (UniProt Q99543)
inactive: ibrutinib -0.004 | [1] -0.001 | ralimetinib 0.027 | [2] 0.018 | [3] -0.008 | [4] 0.009 | [5] -0.005 | [6] -0.043 | [7] 0.015 | [8] 0.028

DNM1L isoform 6 (UniProt O00429)
inactive: ibrutinib 0.009 | [1] 0.002 | ralimetinib 0.023 | [2] -0.014 | [3] -0.008 | [4] 0.003 | [5] 0.021 | [6] 0.005 | [7] 0 | [8] 0.01

DNAAF2 (UniProt Q9NVR5)
inactive: ibrutinib 0.027 | [1] -0.001 | ralimetinib 0.013 | [2] -0.019 | [3] -0.049 | [4] -0.02 | [5] -0.015 | [6] 0.051 | [7] -0.023 | [8] -0.048

DNAJB6 (UniProt O75190)
inactive: ibrutinib -0.086 | [1] 0.019 | ralimetinib 0.014 | [2] -0.069 | [3] -0.023 | [4] 0.061 | [5] -0.032 | [6] 0.021 | [7] 0.058 | [8] 0

DIEXF (UniProt Q68CQ4)
inactive: ibrutinib -0.035 | [1] 0.013 | ralimetinib 0.019 | [2] -0.031 | [3] -0.09 | [4] 0.05 | [5] 0.003 | [6] -0.067 | [7] -0.019 | [8] 0.018

DKC1 (UniProt O60832)
inactive: ibrutinib 0.033 | [1] -0.018 | ralimetinib -0.013 | [2] -0.04 | [3] 0.015 | [4] -0.014 | [5] 0.005 | [6] -0.035 | [7] 0 | [8] 0.007

DHCR24 (UniProt Q15392)
inactive: ibrutinib -0.111 | [1] 0.033 | ralimetinib -0.017 | [2] 0.071 | [3] -0.014 | [4] -0.012 | [5] -0.089 | [6] 0.202 | [7] -0.043 | [8] -0.076

DHRS11 (UniProt Q6UWP2)
inactive: ibrutinib 0.028 | [1] -0.008 | ralimetinib 0.028 | [2] -0.014 | [3] 0.048 | [4] -0.005 | [5] -0.029 | [6] 0.007 | [7] 0.015 | [8] 0.03

DNMT1 isoform 2 (UniProt P26358)
inactive: ibrutinib -0.01 | [1] -0.004 | ralimetinib 0.018 | [2] 0.01 | [3] 0.004 | [4] -0.004 | [5] 0 | [6] -0.011 | [7] -0.004 | [8] 0.003

DNAJC17 (UniProt Q9NVM6)
inactive: ibrutinib 0.029 | [1] 0.032 | ralimetinib 0.098 | [2] 0.061 | [3] -0.025 | [4] 0.02 | [5] 0.005 | [6] -0.033 | [7] 0.028 | [8] -0.011

DNM2 (UniProt P50570)
inactive: ibrutinib 0.014 | [1] 0 | ralimetinib 0.013 | [2] 0.013 | [3] 0.018 | [4] 0.011 | [5] 0.024 | [6] -0.016 | [7] 0.006 | [8] 0.004

DNAJC21 isoform 3 (UniProt Q5F1R6)
inactive: ibrutinib 0.044 | [1] 0.003 | ralimetinib -0.009 | [2] -0.016 | [3] 0.017 | [4] 0.051 | [5] -0.016 | [6] -0.047 | [7] -0.021 | [8] 0.009

DNASE2 (UniProt O00115)
inactive: ibrutinib 0.088 | [1] -0.035 | ralimetinib 0.003 | [2] 0.001 | [3] -0.001 | [4] -0.035 | [5] -0.021 | [6] -0.025 | [7] -0.009 | [8] -0.012
